{
  "sequences": {"note": "Protein sequences, listed by entry. Tags and fused reporters are not part of them.", "UniProt Q92793": "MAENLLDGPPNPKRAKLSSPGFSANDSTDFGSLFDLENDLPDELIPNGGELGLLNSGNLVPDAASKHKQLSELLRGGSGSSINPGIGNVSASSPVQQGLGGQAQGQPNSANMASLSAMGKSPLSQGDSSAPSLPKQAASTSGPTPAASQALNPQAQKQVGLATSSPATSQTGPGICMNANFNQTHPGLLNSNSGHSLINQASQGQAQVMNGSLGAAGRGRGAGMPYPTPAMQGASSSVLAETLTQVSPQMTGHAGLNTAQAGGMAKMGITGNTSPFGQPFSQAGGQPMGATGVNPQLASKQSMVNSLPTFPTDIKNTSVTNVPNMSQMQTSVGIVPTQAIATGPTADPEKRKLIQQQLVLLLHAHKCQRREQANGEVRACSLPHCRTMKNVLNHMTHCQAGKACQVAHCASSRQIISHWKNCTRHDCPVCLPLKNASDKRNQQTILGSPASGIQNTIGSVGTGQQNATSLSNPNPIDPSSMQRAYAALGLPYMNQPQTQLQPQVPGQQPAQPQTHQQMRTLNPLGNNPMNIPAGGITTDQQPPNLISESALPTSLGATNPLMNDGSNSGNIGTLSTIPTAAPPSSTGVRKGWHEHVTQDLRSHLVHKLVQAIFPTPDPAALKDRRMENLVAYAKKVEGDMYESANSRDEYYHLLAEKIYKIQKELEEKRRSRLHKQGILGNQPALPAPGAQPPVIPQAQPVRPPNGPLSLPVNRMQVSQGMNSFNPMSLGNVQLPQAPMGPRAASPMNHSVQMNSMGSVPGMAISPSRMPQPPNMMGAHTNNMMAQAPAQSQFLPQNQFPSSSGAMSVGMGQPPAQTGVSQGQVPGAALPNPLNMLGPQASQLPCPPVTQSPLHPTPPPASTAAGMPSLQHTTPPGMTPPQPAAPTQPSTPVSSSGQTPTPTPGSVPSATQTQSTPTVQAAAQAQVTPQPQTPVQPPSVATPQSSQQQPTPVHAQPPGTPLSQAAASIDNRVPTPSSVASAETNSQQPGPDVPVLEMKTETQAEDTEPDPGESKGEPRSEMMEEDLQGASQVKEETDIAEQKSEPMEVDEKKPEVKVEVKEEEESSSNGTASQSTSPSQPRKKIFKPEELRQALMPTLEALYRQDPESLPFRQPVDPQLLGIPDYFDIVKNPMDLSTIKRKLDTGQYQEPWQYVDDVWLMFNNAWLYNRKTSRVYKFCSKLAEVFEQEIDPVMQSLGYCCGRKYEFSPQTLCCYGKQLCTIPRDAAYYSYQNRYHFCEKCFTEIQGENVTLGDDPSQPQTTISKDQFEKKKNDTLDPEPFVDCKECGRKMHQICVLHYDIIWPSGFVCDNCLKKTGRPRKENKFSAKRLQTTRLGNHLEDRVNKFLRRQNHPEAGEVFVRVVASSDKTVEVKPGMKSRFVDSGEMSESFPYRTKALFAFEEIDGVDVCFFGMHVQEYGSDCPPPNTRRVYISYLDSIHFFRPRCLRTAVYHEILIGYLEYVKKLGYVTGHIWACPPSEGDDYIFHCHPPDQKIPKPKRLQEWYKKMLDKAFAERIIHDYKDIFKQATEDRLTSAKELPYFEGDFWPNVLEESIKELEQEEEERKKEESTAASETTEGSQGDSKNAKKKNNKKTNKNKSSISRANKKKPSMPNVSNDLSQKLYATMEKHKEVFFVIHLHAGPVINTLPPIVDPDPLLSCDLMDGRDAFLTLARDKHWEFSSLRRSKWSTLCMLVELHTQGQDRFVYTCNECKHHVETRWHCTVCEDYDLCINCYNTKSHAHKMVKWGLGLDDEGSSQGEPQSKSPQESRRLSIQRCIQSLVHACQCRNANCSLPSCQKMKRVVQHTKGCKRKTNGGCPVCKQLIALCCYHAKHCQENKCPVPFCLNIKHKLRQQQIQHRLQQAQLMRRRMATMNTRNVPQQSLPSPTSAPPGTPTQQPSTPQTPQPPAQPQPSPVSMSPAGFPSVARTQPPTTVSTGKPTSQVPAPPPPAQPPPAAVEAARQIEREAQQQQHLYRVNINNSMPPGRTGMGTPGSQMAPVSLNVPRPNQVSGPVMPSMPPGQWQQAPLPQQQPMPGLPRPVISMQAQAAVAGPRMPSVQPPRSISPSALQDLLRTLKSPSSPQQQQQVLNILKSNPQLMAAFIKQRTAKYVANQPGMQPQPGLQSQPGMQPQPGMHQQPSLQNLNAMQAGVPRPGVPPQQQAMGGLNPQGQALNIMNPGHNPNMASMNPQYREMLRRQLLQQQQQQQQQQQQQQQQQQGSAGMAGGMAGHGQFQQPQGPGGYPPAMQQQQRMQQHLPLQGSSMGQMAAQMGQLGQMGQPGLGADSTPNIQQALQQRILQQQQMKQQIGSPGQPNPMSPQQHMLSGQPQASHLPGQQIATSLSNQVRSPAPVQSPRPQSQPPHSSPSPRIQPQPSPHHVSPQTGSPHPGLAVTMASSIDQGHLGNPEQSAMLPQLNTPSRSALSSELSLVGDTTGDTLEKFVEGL", "UniProt Q09472": "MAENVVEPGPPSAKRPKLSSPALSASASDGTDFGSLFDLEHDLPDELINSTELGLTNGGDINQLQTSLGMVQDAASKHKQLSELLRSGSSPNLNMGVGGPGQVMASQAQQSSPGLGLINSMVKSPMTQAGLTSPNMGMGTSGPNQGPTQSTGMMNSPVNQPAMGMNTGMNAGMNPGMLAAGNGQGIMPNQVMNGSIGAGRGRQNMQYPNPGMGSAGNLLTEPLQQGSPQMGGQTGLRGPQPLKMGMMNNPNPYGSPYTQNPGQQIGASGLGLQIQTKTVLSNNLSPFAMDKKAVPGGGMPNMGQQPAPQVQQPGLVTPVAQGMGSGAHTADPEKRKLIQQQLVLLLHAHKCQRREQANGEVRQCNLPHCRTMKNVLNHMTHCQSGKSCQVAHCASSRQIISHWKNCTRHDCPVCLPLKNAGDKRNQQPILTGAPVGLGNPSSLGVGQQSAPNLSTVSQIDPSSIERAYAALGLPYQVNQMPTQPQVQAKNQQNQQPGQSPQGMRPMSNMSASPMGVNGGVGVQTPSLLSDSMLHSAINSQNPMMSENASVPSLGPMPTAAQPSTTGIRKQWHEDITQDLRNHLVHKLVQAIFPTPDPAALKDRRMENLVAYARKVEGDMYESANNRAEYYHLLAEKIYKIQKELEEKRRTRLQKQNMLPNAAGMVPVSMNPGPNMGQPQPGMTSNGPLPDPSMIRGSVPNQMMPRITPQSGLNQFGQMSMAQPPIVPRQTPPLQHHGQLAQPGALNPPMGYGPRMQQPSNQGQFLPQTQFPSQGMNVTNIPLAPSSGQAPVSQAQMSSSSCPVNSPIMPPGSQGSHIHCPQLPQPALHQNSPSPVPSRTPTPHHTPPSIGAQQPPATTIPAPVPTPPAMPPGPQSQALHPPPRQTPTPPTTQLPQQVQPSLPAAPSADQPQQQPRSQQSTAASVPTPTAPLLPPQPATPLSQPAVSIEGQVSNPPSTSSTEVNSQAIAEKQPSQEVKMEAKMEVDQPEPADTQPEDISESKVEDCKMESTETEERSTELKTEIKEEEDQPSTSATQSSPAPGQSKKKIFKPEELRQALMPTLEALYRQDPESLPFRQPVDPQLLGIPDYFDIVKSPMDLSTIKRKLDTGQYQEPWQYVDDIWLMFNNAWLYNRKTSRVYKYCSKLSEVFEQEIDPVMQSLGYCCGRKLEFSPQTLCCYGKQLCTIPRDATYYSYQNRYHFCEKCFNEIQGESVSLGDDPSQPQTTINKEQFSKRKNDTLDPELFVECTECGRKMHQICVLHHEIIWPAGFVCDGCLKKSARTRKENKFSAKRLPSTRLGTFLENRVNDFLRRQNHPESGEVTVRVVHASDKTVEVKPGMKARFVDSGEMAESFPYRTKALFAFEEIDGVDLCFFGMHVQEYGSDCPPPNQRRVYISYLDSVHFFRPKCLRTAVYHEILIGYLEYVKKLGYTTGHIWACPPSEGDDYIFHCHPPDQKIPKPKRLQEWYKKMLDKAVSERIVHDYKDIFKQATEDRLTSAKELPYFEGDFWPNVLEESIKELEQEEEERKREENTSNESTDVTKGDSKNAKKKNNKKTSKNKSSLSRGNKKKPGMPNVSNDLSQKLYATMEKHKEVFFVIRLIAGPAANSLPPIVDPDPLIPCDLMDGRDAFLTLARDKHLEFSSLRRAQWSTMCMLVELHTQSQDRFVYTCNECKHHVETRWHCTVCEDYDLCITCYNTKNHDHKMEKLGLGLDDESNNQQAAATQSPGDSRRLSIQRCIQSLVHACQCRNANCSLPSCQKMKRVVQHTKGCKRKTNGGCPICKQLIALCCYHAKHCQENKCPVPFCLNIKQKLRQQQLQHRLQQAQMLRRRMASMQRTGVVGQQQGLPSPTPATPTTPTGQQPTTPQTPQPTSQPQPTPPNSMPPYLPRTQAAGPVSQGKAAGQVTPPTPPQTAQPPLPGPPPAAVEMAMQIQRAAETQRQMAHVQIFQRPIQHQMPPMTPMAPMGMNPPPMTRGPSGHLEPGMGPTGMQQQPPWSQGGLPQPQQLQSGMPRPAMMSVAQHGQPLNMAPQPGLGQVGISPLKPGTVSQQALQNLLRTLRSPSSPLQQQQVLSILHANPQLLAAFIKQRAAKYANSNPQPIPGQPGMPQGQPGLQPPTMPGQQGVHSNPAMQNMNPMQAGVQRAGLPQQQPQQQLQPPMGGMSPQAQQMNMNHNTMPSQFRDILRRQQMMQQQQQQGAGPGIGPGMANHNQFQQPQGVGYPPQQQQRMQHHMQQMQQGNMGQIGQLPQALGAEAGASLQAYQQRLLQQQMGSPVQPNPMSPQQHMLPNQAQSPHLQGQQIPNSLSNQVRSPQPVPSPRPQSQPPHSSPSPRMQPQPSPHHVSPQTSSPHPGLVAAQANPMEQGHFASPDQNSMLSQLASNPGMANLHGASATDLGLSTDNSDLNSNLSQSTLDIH"},
  "source": "paper PMC6815964",
  "binders": {"B1": {"name": "Macrophage-capping protein (CapG), ectopically expressed in MCF-7 cells (protein, UniProt P40121 1-348)", "chain": "MYTAIPQSGSPFPGSVQDPGLHVWRVEKLKPVPVAQENQGVFFSGDSYLVLHNGPEEVSHLHLWIGQQSSRDEQGACAVLAVHLNTLLGERPVQHREVQGNESDLFMSYFPRGLKYQEGGVESAFHKTSTGAPAAIKKLYQVKGKKNIRATERALNWDSFNTGDCFILDLGQNIFAWCGGKSNILERNKARDLALAIRDSERQGKAQVEIVTDGEEPAEMIQVLGPKPALKEGNPEEDLTADKANAQAAALYKVSDATGQMNLTKVADSSPFALELLISDDCFVLDNGLCGKIYIWKGRKANEKERQAALQVAEGFISRMQYAPNTQVEILPQGHESPIFKQFFKDWK"}, "B2": {"name": "Macrophage-capping protein (CapG), endogenous in MDA-MB231 cells (protein, UniProt P40121 1-348)", "chain": "B1 chain"}},
  "key": {"[1]": {"substrate": "CBP (human (endogenous in MCF-7 and MDA-MB231)) (UniProt Q92793)", "assay": "co-IP; MCF-7/CapG and MDA-MB231 cell lysates immunoprecipitated with anti-CBP or control; precipitates immunoblotted"}, "[2]": {"substrate": "CBP (human (endogenous in MCF-7 and MDA-MB231)) (UniProt Q92793)", "assay": "ChIP-reChIP; MCF-7 cells transfected with CapG, cross-linked with 1% formaldehyde, chromatin sheared; sequential IP with anti-CapG then anti-CBP; qPCR of the PIK3R1/P50 promoter"}, "[3]": {"biological_target": "p300 (human (endogenous in MCF-7 and MDA-MB231)) (UniProt Q09472)", "assay": "co-IP; co-IP of CapG and p300 (Figure S7B, not shown); precipitating antibody and cell line not told in the text shown"}},
  "note": "No constants are given. Whether binding was seen depends on the method and setting. For some assays here: Binding seen in cells or lysates may run through a third protein. Some results given as binding are weak or reduced against the parent protein; the word gives no strength.",
  "data": [
    {"binder": "B1", "values": [
      {"measurement": "binding", "setting": "[1]", "result": "binds"},
      {"measurement": "binding", "setting": "[2]", "result": "binds"},
      {"measurement": "binding", "setting": "[3]", "result": "binds"}
    ]},
    {"binder": "B2", "values": [
      {"measurement": "binding", "setting": "[1]", "result": "binds"},
      {"measurement": "binding", "setting": "[3]", "result": "binds"}
    ]}
  ]
}
